Source: patent US20210333263A1, “REDOX ACTIVATABLE FLUORESCENT SENSORS” (The Board of Regents of the University of Texas System, priority 2016, published 2021)

Assay: Redox activation of OVA^qRAS by GSH or DTT (fluorescence spectra)
Conditions: GSH 5 mM, 1 hr, PBS

B1: OVA^qRAS: Ovalbumin labeled by qRAS (conjugate, UniProt P01012 2-386, looked up)
Ovalbumin: GSIGAASMEFCFDVFKELKVHHANENIFYCPIAIMSALAMVYLGAKDSTRTQINKVVRFDKLPGFGDSIEAQCGTSVNVHSSLRDILNQITKPNDVYSFSLASRLYAEERYPILPEYLQCVKELYRGGLEPINFQTAADQARELINSWVESQTNGIIRNVLQPSSVDSQTAMVLVNAIVFKGLWEKAFKDEDTQAMPFRVTEQESKPVQMMYQIGLFRVASMASEKMKILELPFASGTMSMLVLLPDEVSGLEQLESIINFEKLTEWTSSNVMEERKIKVYLPRMKMEEKYNLTSVLMAMGITDVFSSSANLSGISSAESLKISQAVHAAHAEINEAGREVVGSAEAGVDAASVSEEFRADHPFLFCIKHIATNAVLFFGRCVSP
modifications: qRAS label
In the case of B1, the “increase of emission intensity of TMR (fluorescence activation ratio)” value is reported as 30 fold.
